Results published in US6764837.
These are yes or no findings as the source states them, for the method shown. Some binding calls cover weakened binding; strength is not graded here.

Amino acid sequences for entries named in this document (tags omitted). A change or cut given only in a name is not applied to a line headed by its entry.
UniProt P0A8V2: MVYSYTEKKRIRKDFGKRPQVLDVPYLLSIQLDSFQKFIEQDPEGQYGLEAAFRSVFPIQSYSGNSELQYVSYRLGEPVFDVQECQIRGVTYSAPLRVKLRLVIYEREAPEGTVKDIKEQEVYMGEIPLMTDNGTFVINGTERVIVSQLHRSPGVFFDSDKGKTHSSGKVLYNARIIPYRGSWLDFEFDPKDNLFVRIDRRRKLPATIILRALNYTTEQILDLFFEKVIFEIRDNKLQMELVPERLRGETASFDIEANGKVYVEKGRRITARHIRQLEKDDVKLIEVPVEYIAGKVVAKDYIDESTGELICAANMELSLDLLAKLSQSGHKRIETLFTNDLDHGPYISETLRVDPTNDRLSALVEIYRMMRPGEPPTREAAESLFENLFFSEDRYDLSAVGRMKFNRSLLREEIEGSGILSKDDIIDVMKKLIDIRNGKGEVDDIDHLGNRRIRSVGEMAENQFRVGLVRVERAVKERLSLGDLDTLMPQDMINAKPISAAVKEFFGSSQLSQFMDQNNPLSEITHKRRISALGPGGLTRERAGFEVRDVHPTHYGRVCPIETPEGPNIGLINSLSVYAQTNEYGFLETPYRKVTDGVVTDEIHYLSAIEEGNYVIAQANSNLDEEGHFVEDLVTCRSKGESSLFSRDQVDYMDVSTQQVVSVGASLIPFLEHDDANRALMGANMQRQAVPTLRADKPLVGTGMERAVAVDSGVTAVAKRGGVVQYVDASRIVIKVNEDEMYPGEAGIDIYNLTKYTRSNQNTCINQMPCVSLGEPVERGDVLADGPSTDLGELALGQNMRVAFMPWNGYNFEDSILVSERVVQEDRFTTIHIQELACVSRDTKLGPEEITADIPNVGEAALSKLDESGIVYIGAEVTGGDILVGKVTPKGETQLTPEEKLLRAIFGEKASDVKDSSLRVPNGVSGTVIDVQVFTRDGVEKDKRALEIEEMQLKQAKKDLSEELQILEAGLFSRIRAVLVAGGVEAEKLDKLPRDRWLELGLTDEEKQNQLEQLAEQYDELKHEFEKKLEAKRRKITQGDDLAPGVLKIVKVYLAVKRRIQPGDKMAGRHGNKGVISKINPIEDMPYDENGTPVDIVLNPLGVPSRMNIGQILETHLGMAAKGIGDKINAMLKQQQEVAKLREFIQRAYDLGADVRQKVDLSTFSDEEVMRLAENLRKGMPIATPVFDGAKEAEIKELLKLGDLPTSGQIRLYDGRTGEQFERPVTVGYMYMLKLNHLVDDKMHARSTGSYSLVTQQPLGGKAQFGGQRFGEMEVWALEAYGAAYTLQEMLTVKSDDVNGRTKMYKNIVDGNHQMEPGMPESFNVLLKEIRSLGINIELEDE
UniProt P0A8T7: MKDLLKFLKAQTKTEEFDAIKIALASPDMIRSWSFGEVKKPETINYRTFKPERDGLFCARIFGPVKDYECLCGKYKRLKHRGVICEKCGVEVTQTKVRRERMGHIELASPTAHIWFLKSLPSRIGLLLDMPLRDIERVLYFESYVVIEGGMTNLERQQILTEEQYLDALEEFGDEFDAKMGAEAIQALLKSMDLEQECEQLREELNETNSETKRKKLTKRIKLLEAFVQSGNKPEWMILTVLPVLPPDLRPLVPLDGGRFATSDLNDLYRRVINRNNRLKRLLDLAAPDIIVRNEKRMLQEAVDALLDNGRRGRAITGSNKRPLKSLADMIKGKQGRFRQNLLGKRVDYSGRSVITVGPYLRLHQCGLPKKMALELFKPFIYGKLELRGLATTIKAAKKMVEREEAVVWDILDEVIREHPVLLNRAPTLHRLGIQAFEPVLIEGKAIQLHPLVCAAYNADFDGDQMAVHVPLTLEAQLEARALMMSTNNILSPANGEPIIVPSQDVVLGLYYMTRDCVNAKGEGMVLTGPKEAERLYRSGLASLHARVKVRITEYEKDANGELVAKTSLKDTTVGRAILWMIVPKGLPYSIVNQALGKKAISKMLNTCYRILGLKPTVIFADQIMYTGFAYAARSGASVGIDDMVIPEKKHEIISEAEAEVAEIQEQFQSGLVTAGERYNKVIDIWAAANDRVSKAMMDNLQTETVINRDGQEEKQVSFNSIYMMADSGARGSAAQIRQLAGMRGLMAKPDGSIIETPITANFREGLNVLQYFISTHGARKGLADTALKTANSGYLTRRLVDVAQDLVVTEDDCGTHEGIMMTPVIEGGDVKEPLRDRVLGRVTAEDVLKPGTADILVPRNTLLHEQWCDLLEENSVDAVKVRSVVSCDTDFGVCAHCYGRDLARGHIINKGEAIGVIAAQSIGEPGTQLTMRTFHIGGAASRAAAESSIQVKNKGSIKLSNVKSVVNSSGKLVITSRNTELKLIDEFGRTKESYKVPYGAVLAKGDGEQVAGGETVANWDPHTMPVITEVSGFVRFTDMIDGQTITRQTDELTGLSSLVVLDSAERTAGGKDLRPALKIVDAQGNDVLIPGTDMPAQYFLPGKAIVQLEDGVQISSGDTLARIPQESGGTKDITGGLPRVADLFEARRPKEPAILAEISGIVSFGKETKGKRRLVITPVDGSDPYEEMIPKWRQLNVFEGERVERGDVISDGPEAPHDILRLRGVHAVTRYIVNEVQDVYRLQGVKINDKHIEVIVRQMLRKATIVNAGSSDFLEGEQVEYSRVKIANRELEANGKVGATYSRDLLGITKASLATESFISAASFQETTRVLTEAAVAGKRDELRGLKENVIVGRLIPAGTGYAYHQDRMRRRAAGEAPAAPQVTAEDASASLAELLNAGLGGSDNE
UniProt P00579: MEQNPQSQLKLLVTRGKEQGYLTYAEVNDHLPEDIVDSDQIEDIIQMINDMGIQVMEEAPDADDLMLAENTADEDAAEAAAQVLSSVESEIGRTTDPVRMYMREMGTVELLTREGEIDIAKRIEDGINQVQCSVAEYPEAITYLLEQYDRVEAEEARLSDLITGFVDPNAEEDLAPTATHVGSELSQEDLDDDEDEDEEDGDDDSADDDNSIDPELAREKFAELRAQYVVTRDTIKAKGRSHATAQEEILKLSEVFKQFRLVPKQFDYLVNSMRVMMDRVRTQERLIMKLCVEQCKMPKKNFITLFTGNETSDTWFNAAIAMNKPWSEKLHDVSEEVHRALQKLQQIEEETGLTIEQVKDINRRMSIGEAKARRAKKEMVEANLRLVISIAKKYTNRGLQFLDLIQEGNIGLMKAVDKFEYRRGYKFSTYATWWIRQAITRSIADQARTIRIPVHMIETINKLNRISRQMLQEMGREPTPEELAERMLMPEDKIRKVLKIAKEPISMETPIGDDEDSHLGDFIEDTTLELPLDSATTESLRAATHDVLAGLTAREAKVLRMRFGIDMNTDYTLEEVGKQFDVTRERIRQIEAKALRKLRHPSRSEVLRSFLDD
UniProt A1AGI6: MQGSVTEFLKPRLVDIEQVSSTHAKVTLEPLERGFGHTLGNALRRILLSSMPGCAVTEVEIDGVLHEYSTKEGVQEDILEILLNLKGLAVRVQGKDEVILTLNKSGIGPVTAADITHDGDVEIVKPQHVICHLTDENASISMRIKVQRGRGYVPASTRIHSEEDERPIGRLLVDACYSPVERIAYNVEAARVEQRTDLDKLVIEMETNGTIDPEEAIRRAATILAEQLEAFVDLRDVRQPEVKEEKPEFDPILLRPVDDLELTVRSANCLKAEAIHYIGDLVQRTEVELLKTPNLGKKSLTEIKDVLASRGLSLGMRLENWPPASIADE

Experiments:
[1] = biological target: E. coli RNA polymerase β subunit (Escherichia coli) (UniProt P0A8V2); assay: in vitro reconstitution of RNAP, SDS-PAGE (FIG. 4A)
[2] = biological target: E. coli RNA polymerase β′ subunit (Escherichia coli) (UniProt P0A8T7); assay: as above
[3] = biological target: E. coli RNA polymerase σ70 subunit (Escherichia coli) (UniProt P00579); assay: as above
[4] = biological target: E. coli RNA polymerase β subunit (Escherichia coli) (UniProt P0A8V2); assay: in vitro reconstitution of RNAP, sizing column, SDS-PAGE (FIG. 4A)
[5] = biological target: E. coli RNA polymerase β′ subunit (Escherichia coli) (UniProt P0A8T7); assay: as above
[6] = biological target: E. coli RNA polymerase σ70 subunit (Escherichia coli) (UniProt P00579); assay: as above

Measured: binding

His-tagged RpoA (α subunit of RNA polymerase) of E. coli (from UniProt A1AGI6 1-329)
binds: all assays above
